Laboratory results reported in PubChem BioAssay AID2685 (National Center for Advancing Translational Sciences (NCATS), 2010).
Some of the results follow. Shown are side measurements of this screen, not its main read-out; they come without a call. Most of these compounds were active or inconclusive in the main read-out, so they are no random draw. Words in brackets tell the shape of the fitted curve; partial curves, single points and poor fits give uncertain potencies.

Assay: qHTS Assay for Lipid Storage Modulators in Drosophila S3 Cells;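 as to cell number change: cells counted by Cell Tracker Red CMTPX staining in the red channel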
Conditions: BODIPY lipid droplet fluorescence, 18-24 h; for cell number change: measured here: cell count max response, cells fed with added oleic acid
Procedure, shortened: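 Laser-scanning cytometry quantifies lipid droplet accumulation (500–530 nm total intensity; droplet/cell object ratio) in oleic acid-fed (400 uM added) Drosophila S3 cells treated with a concentration series. 20 uM Triacsin C defined 100% inhibition.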

[1] = measured here: cell number channel AC50, cells fed with added oleic acid
[2] = measured here: lipid fluorescence (Fed channel) AC50, cells fed with added oleic acid

With CCC1Oc2ccc(C)cc2N(CC(=O)NCCCN2CCCC2)C1=O (stereo not drawn) the cell number change was 38.9%.
With O=C(Cn1nc(Cc2cccnc2)c2ccccc2c1=O)NCc1ccc2c(c1)OCO2 the AC50 [1] was 0.0517 µM [rising, full curve] and the AC50 [2] was 0.82 µM [rising, full curve].
For CCOc1ccc(NC(=O)CN(C)C(=O)c2nc3nc(C)cc(C)n3n2)cc1OCC, the cell number change was 0.556% and the AC50 [2] was 9.2 µM [rising, single point].
With Cc1cc2c(cc1C)C(=O)NC(C)(C)C2 the cell number change was 116% and the AC50 [1] was 20.6 µM [rising, single point].
For O=C(NCC1CCCN1S(=O)(=O)c1cccs1)C(=O)Nc1cccc(F)c1 (stereo not drawn), the AC50 [1] was 3.26 µM [rising, single point].
For CCn1c(SCC(=O)NC2CCCCC2)nc2c(c1=O)SCC2, the cell number change was 11.1% and the AC50 [2] was 18.4 µM [rising, partial curve].
With COC(=O)COc1cc(Cl)c(C=O)cc1OC the cell number change was -32.2% and the AC50 [1] was 1.84 µM [falling, partial curve].
With O=C(CSc1ccc(-c2nc3ccccc3[nH]2)cn1)Nc1ccc2c(c1)OCCO2 the cell number change was -55%, the AC50 [1] was 32.6 µM [falling, single point] and the AC50 [2] was 20.6 µM [falling, single point].
For COC(=O)c1cc(S(=O)(=O)N2CCN(c3cccc(OC)c3)CC2)cn1C, the cell number change was 10.2% and the AC50 [2] was 0.517 µM [rising, single point].
In the case of CCc1ccc(NC(=O)CSc2nc3ccccc3nc2N2CCCCC2)cc1, the AC50 [2] was 14.6 µM [falling, single point].
In the case of CCN1CCN(C(=O)c2ccc(OCC(=O)Nc3ccc(F)cc3)c(OC)c2)CC1, the cell number change was -6.68%, the AC50 [1] was 6.51 µM [falling, single point] and the AC50 [2] was 5.8 µM [falling, partial curve, poor fit].
For CCn1nc(NC(=O)C2CCCO2)c2cc3cccc(C)c3nc21 (stereo not drawn), the cell number change was 36.6% and the AC50 [1] was 11.6 µM [rising, single point].
In the case of O=C1CCN(Cc2ccccc2)CCN1[C@H](CO)Cc1ccccc1, the cell number change was 20.4% and the AC50 [2] was 0.58 µM [falling, single point].
With O=S1(=O)N=C2CCCCCN2C(c2ccc(Br)cc2)N1 (stereo not drawn) the cell number change was -41.3% and the AC50 [1] was 0.164 µM [falling, full curve, poor fit].
With O=C(Nc1ccc(F)c(Cl)c1)C1CCCN(c2cnccn2)C1 (stereo not drawn) the cell number change was 50.2% and the AC50 [1] was 29.1 µM [rising, single point].
In the case of O=C(Cn1c(=O)oc2cc(S(=O)(=O)N3CCc4ccccc43)ccc21)NC1CCCC1, the cell number change was 42.7% and the AC50 [1] was 20.6 µM [rising, single point].
For Cc1cc(/C=C2/NC(=O)N(c3ccccc3)C2=O)c(C)n1C(C)C, the cell number change was 5.14% and the AC50 [2] was 2.91 µM [rising, full curve].
For O=C(c1ccccc1)c1ccc(OC(=O)N2CCOCC2)cc1, the cell number change was -34.1%.
With CCN(c1cccc(C)c1)S(=O)(=O)c1ccc(-c2coc(C)n2)cc1 the cell number change was 3.98% and the AC50 [2] was 2.31 µM [rising, full curve, poor fit].
For C=CCNc1oc(-c2cccc3ccccc23)nc1C#N, the AC50 [2] was 0.231 µM [rising, full curve, poor fit].
With O=C(N/N=C/c1ccc(N2CCOCC2)o1)c1cccc(F)c1 the cell number change was -40.3%, the AC50 [1] was 23.1 µM [falling, single point] and the AC50 [2] was 23.1 µM [falling, single point].
In the case of CC(CN1CCOCC1)OC(=O)c1cccc(Cl)c1 (stereo not drawn), the cell number change was -20.1%.
For Cc1ccc(C)c(NC(=S)N2CCCCC2CO)c1 (stereo not drawn), the cell number change was 25.5%, the AC50 [1] was 0.0231 µM [falling, full curve, poor fit] and the AC50 [2] was 0.116 µM [falling, full curve, poor fit].
In the case of CC(=O)OC1COC(n2c(O)c(N=NC(N)=S)c3ccccc32)C(OC(C)=O)C1OC(C)=O (stereo not drawn), the cell number change was -22% and the AC50 [2] was 6.51 µM [falling, full curve].
With COc1cc(CNCc2cccnc2)ccc1OCC(=O)NC1CCCCC1 the cell number change was -7.34% and the AC50 [2] was 18.4 µM [falling, single point].
In the case of Cn1cc(-c2ccno2)c(C(=O)O)n1, the cell number change was 48.2% and the AC50 [1] was 29.1 µM [rising, single point].
In the case of Cc1cccc(C)c1NC(=O)CN1CCN(C(=O)CNC(=O)c2ccc(N3CCCC3=O)cc2)CC1, the cell number change was 8.12% and the AC50 [2] was 1.46 µM [rising, partial curve].
With COc1ccc(NC(=O)CCS(=O)(=O)c2ccc(Br)s2)cc1 the cell number change was 22.6%.
In the case of COc1ccccc1C(=O)NCC(=O)N/N=C(\C)Cc1ccccc1, the cell number change was 11.3%.
With C/C(N)=C(/C#N)C(=O)CSc1nc2ccccc2c(=O)n1-c1ccccc1C the cell number change was 21.5% and the AC50 [2] was 20.6 µM [rising, single point].
For CCCc1cc(=O)oc2cc(OCC(=O)Nc3ccc(S(N)(=O)=O)cc3)ccc12, the cell number change was 33.2%.
For Cc1csc(-c2cccnc2)n1, the cell number change was 8.5% and the AC50 [2] was 3.26 µM [rising, single point].
In the case of Cn1c(=O)c2ccccc2n(Cc2cccc(F)c2)c1=O, the cell number change was -6.87% and the AC50 [2] was 20.6 µM [falling, single point].
With CCC(C)n1c(-c2cccs2)nc2nc3ccccc3nc21 (stereo not drawn) the cell number change was 3.61% and the AC50 [1] was 0.164 µM [rising, full curve, poor fit].
Cc1cc(C(C)(C)C)ccc1OCCN1CCCC1 gave a cell number change of 4.59%.
In the case of CCc1ccc2nc(N3C(=O)c4oc5ccccc5c(=O)c4C3c3ccc(OC)c(OC)c3)sc2c1 (stereo not drawn), the cell number change was -11.6%.
Compound COc1ccc(-c2cc(C(=O)N3CCc4ccccc4C3)no2)cc1OC has a cell number change of -24.1%.
With Cc1ccsc1/C=C(\C#N)C(=O)NCc1ccco1 the cell number change was -37.4%, the AC50 [1] was 0.00731 µM [falling, full curve, poor fit] and the AC50 [2] was 0.116 µM [rising, full curve].
With O=C(c1ccc(F)cc1F)N1CCN(c2ncccn2)CC1 the cell number change was -13.8% and the AC50 [2] was 1.84 µM [falling, partial curve, poor fit].
For COc1ccc(-c2csc(-c3ccccc3)n2)c(OC)c1, the cell number change was -14.9% and the AC50 [1] was 0.058 µM [falling, full curve, poor fit].
With O=C(O)C1C2CCCCC2=C2CCCCC2C1C(=O)O (stereo not drawn) the cell number change was -11.9% and the AC50 [2] was 0.146 µM [falling, full curve].
In the case of Cc1ccc(-c2cc(C(=O)NN=C3CCCC3)c3ccccc3n2)cc1, the cell number change was 107%, the AC50 [1] was 29.1 µM [rising, single point] and the AC50 [2] was 29.1 µM [rising, single point].
With CCNC(=S)NNC(=O)c1cc(-c2ccc(OCC)cc2)nc2ccccc12 the cell number change was 9.33% and the AC50 [2] was 0.82 µM [rising, full curve, poor fit].
In the case of COc1cc2c(cc1OC)CN(C(=O)CSc1nc3[nH]ncc3c(=O)n1-c1ccccc1)CC2, the cell number change was 40.1%, the AC50 [1] was 6.51 µM [rising, partial curve, poor fit] and the AC50 [2] was 2.91 µM [rising, single point].
Work on O=C(Nc1ccc(NC(=O)c2cccs2)cc1Cl)c1ccco1 yielded a cell number change of -0.706%.
For Cc1sc2ncn(CC(=O)NCCCC(=O)N(C)Cc3ccccc3)c(=O)c2c1C, the cell number change was 10% and the AC50 [2] was 29.1 µM [rising, single point].
In the case of Cc1ccc2c(COC(=O)c3cnc(C)cn3)cc(=O)oc2c1, the cell number change was 2.07%.
With CSc1ccc(CSCC(=O)N2CCN(S(=O)(=O)c3ccc(C)cc3C)CC2)cc1 the cell number change was -9.71% and the AC50 [2] was 4.61 µM [falling, partial curve].
For O=C(Nc1cccc(Br)c1)c1cc2ccccc2o1, the cell number change was -33.9%, the AC50 [1] was 23.1 µM [falling, single point] and the AC50 [2] was 20.6 µM [falling, partial curve, poor fit].
With COc1ccc(CNC(=O)c2ccc(N3CCOCC3)c([N+](=O)[O-])c2)cc1 the cell number change was 26.2% and the AC50 [2] was 0.00651 µM [falling, full curve, poor fit].
CCOC(=O)c1c(S(=O)(=O)NCC(=O)Nc2cccc(C)c2C)c(C)n(C)c1C showed a cell number change of 8.25%.
In the case of Cc1cccc(N2CCN(C(=S)NCc3ccco3)CC2)c1C, the cell number change was 26.6% and the AC50 [2] was 14.6 µM [rising, single point].
With CCCCC1CN2CCc3c([nH]c4ccccc34)C2(C)C1 (stereo not drawn) the cell number change was 9.39% and the AC50 [2] was 23.1 µM [falling, single point].
With O=C(CNS(=O)(=O)c1ccc2ccccc2c1)NCCc1ccccn1 the AC50 [1] was 0.146 µM [rising, single point] and the AC50 [2] was 0.13 µM [rising, single point].
With CN(CCCNC(=O)Cn1c(=O)c2cccn2c2ccccc21)Cc1ccccc1 the cell number change was -19.2% and the AC50 [2] was 1.84 µM [rising, partial curve, poor fit].
In the case of COc1ccc(C(CC(=O)Nc2ccccn2)N2Cc3ccccc3C2=O)cc1 (stereo not drawn), the cell number change was 20.4% and the AC50 [2] was 23.1 µM [falling, single point].
For COc1c(F)c(F)c(C(=O)O)c(Nc2ccccc2C)c1F, the cell number change was -23.1%.
With CCOC(=O)c1c(-c2ccc(C)o2)csc1NC(=O)CN1CCOCC1 the AC50 [1] was 0.461 µM [rising, single point] and the AC50 [2] was 1.16 µM [rising, partial curve].
In the case of O=C(NCC(=O)N(c1ccccc1)C(C(=O)NC1CCCCC1)c1ccncc1)c1ccco1 (stereo not drawn), the cell number change was -21.3% and the AC50 [1] was 0.164 µM [falling, full curve, poor fit].
In the case of Nc1ccccc1SC1CC(=O)N(c2ccc3c(c2)OCO3)C1=O (stereo not drawn), the cell number change was 19.9% and the AC50 [2] was 1.16 µM [rising, full curve].
In the case of CC(C)C1C(C#N)=C(N)Oc2n[nH]c(-c3ccc4ccccc4c3)c21 (stereo not drawn), the cell number change was -58.6% and the AC50 [2] was 6.51 µM [rising, partial curve].
CC(/C=C1\SC(=S)N(NS(=O)(=O)c2ccccc2)C1=O)=C\c1ccccc1 gave a cell number change of -8.43%.
For O=C(CN1CCN(S(=O)(=O)c2cc(Cl)ccc2Cl)CC1)c1ccc(O)c(O)c1, the cell number change was -37.5%, the AC50 [1] was 13 µM [falling, single point] and the AC50 [2] was 29.1 µM [falling, single point].
